From US20170320946A1
These are yes or no findings as the source states them, for the method shown. In cells and extracts the contact can be indirect. Some entries that bind do so weakly or less than the wild type.

The chains behind the UniProt entries cited, without tags or fusion partners. Where a name states a change or a piece, a line headed by the entry shows the natural chain unless it says otherwise. Residues count along the entry.
UniProt O43914, residues 22-113: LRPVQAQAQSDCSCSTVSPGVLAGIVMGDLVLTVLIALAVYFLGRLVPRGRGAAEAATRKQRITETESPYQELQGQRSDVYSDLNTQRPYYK
UniProt Q9NP99: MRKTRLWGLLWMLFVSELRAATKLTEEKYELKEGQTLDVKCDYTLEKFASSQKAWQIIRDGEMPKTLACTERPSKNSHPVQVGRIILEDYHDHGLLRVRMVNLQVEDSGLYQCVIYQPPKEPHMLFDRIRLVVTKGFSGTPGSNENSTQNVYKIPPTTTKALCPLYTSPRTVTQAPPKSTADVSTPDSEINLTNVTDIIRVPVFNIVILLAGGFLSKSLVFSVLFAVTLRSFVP

Target: DAP12 (human) (UniProt O43914)
Test: co-immunoprecipitation from pervanadate-treated monocytes, anti-DAP12 blot

Substance: human TREM-1 on blood monocytes and neutrophils (from UniProt Q9NP99 17-234) (receptor)
- binding: binds
